According to patent publication US12679849B2, “Macrocyclic compounds as STING agonists” (LUPIN LIMITED, priority 2019, dated 2026):
Some results were stated once for a whole list of compounds, not compound by compound. Some compounds share one range, which may span the group rather than tell each member.

Experiments:
[1] = system: IFNβ; test: Cytokine (IFNβ) secretion in mouse whole blood in response to STING agonists; format: cell-based; conditions: mouse whole blood (C57BL/6), 3 μM, 4 h, ELISA
[2] = system: IFNβ; test: Cytokine (IFNβ) secretion in human whole blood in response to STING agonists; format: cell-based; conditions: 3 μM, 5 h, ELISA
[3] = system: CT26 allograft; test: Effect on tumor volume in CT26 allograft BALB/c mice model by intravenous administration; format: in vivo, mouse

SMILES | IFNβ secretion [1] [pg/mL] | IFNβ secretion [2] [pg/mL] | tumor regression ([3]; day 21, 0.75 mpk i.v. on day 1, 4 and 8, all the animals) [%] | tumor regression ([3]; day 21, 0.375 mpk i.v. on day 1, 4 and 8, all the animals) [%] | tumor regression ([3]; day 21, 1.5 mpk i.v. on day 1, 4 and 8, all the animals) [%]
CCn1nc(C)cc1C(=O)Nc1nc2cc(C(N)=O)cc3c2n1C/C=C/Cn1c(NC(=O)c2cc(C)nn2CC)nc2cc(C(N)=O)cc(c21)OCC(N1CC2CCC(C1)O2)CO3 [Compound 1, (E)-8-(8-oxa-3-azabicyclo[3.2.1]octan-3-yl)-1,15-bis(1-ethyl-3-methyl-1H-pyrazole-5-carboxamido)-8,9,16,19-tetrahydro-7H-6,10-dioxa-2,14,15a,19a-tetraazacyclopentadeca[3,2,1-cd:8,9,10-c′d′]diindene-4,12-dicarboxamide] | 250 to 900 | 250 to 900 | > 80 | – | –
CCn1nc(C)cc1C(=O)Nc1nc2cc(C(N)=O)cc3c2n1C/C=C/Cn1c(NC(=O)c2cc(C)nn2CC)nc2cc(C(N)=O)cc(c21)OCC(N1C2CCC1COC2)CO3 [Compound 2, (E)-8-(3-oxa-8-azabicyclo[3.2.1]octan-8-yl)-1,15-bis(1-ethyl-3-methyl-1H-pyrazole-5-carboxamido)-8,9,16,19-tetrahydro-7H-6,10-dioxa-2,14,15a,19a-tetraazacyclopentadeca[3,2,1-cd:8,9,10-c′d′]diindene-4,12-dicarboxamide] | 250 to 900 | 250 to 900 | – | > 80 | –
CCn1nc(C)cc1C(=O)Nc1nc2cc(C(N)=O)cc3c2n1C/C=C/Cn1c(NC(=O)c2cc(C)nn2CC)nc2cc(C(N)=O)cc(c21)OCC(N1CCOCC1)CO3 [Compound 3, (E)-1,15-bis(1-ethyl-3-methyl-1H-pyrazole-5-carboxamido)-8-morpholino-8,9,16,19-tetrahydro-7H-6,10-dioxa-2,14,15a,19a-tetraazacyclopentadeca[3,2,1-cd:8,9,10-c′d′]diindene-4,12-dicarboxamide] | 250 to 900 | 250 to 900 | – | – | > 80
